This is one part of the list. Potency and affinity values are given separately.
What follows are compounds tested on Pseudomonas aeruginosa. Conditions: Concentration 20 uM; ASSAY_TEST Inhibition of Bacterial Growth; detection method Absorption (OD600); MEDIA CAMHB; plate type 384well; NBS; CORNING #3640; time 18 hr.

Point of comparison: `C=CCCC1(C2=CCCCC2)C(=O)NC(=O)NC1=O`, Inhibition 14.38%. Against it:
- c1ccc2c(c1)Sc1ccccc1N2CC1CN2CCC1CC2 (configuration not stated) [MEQUITAZINE] — higher, 31.41%
- CNC(=O)Oc1ccc(N(C)C)cc1C(C)C — higher, 19.58%
- O=C1CC(c2ccc(O)cc2)Oc2cc(O)cc(O)c21 (configuration not stated) — lower, -0.63%
- COc1ccc2c3c1O[C@H]1C[C@@H](O)C=C[C@@]31CCN(C)C2 [GALANTAMINE] — lower, -12.81%
- C=C1C/C(=C/C)C(=O)O[C@@H]2CCN3CC=C(COC(=O)[C@]1(C)O)[C@H]23 [SENECIPHYLLINE] — higher, 15.22%
- CCCCOP(=O)(OCCCC)C1(C)CC(=O)CC(C)(C)C1 (configuration not stated) — lower, 10.08%
- CCN1CC2C3CCC(C)(O3)C2C1 (configuration not stated) — higher, 17.69%
- NC(=O)c1ccc(C(=O)Nc2ccc([As](=O)(O)O)cc2)cc1 — higher, 28.48%
- CC(=O)Nc1cccc([As](=O)(c2cccc(NC(C)=O)c2)c2cccc(NC(C)=O)c2)c1 — lower, -5.34%
- C[C@]12CC[C@@H]3c4ccc(OC(=O)N(CCCl)CCCl)cc4CC[C@H]3[C@@H]1CC[C@@H]2O [ESTRAMUSTINE] — lower, -10.11%
- CCC1CCC(C)N(N=O)C1 (configuration not stated) — lower, 3.2%
- O=C1NC(=O)C(=Cc2csc3ccccc23)C(=O)N1 — lower, 3.3%
- CN1CCc2cc3c(cc2C1)OCO3 — higher, 14.65%
- O=C(O)CCCC[C@@H]1SC[C@@H]2NC(=O)N[C@@H]21 [BIOTIN] — lower, 13%
- SC1=NC2(CCCCC2)NC12CCCCC2 — lower, 0.59%
- Cc1ccccc1NC(=O)Oc1cccc(OC(=O)c2ccccc2)c1 — higher, 22.67%
- COc1c(OP2(=S)OCC(C)(C)CO2)cnn(C2CCCCC2)c1=O — higher, 24.59%
- CC(=O)OC1CCC2(C)C(CCC3C2CC(=O)C2(C)C3CC(N3CC3)C2C(C)=O)C1 (configuration not stated) — higher, 16.41%
- C(=C\c1ccncc1)/c1ccncc1 — higher, 25.67%
- O=P(Oc1ccccc1)(Oc1ccccc1)c1ccccc1 — lower, 0.83%
- CC(C)OC1CCCC(O)C1CC(=O)O (configuration not stated) — lower, 0.35%
- Cc1ccccc1-n1c(/C=C\c2ccccn2)nc2ccccc2c1=O — higher, 28.69%
- COc1ccc(C2=CC(c3ccc(OC)c(OC)c3)c3c(c4ccccc4oc3=O)O2)cc1OC (configuration not stated) — higher, 14.97%
- O=S(=O)(F)c1ccc2nc(-c3cccc(Sc4ccccc4)c3)cc(Cl)c2c1 — lower, 9.97%
- OCC1CN1C1CCCCC1 (configuration not stated) — lower, 8.57%
- COC(=O)c1nc(-c2ccc3c(n2)C(=O)C(N)=C(OC)C3=O)c(N)c(-c2ccc(OC)c(OC)c2O)c1C — lower, 12.57%

Source: ChEMBL document CHEMBL4296182, “CO-ADD screening of NIH NCI Diversity Set V”
